Assay results from US20230272088A1 (SYNTHEKINE, published 2023).
Results are given in words; binding and its absence hold for the method and conditions named. Some binding calls cover weakened binding; strength is not graded here.

T1: extracellular domain of mIFNGR2 (mouse)
T1 sequence (chain, conjugated to Alexa647 (site not stated)): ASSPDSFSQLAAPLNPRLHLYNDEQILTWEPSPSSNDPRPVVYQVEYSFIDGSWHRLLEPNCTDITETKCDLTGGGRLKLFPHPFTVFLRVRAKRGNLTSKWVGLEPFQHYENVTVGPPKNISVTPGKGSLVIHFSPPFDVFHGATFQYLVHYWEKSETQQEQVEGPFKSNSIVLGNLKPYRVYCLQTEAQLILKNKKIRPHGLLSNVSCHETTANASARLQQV

T2: extracellular domain of hIFNGR2 (human, UniProt P38484 28-247, conjugated to Alexa647 (site not stated))
T2 construct: also called hIFNGR2-ECD; human IFNGR2 ECD
T2 sequence: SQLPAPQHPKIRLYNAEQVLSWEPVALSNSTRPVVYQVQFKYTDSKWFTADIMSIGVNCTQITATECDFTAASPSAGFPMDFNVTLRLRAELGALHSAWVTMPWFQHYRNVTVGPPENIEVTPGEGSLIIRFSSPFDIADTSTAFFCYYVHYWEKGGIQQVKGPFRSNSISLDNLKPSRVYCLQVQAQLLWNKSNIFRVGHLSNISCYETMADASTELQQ


Assays:
[1] = molecular target: T1, extracellular domain of mIFNGR2 (mouse); assay: flow cytometry
[2] = molecular target: T1, extracellular domain of mIFNGR2 (mouse); assay: flow cytometry, yeast-displayed VHH, 100 nM Alexa647-conjugated antigen
[3] = molecular target: T2, extracellular domain of hIFNGR2; assay: as above
Description: Binding of individual VHH to human and murine antigen was tested by flow cytometry. Briefly, 2E5 yeast cells expressing a single sdAb clone were added to each well of a 96 well plate. The first plate was incubated with 100 nM of human antigen conjugated to Alexa647 whereas the second plate was incubated with 100 nM of murine antigen conjugated to Alexa647. Yeast cells were washed 3 times with PBS containing 1% bovine serum albumin. Yeast cells were analyzed using flow cytometry and clones showing a mean fluorescence intensity of greater than 1000 were considered as binding molecules. Specificity of sdAbs was confirmed by incubating yeast cells with a irrelevant protein conjugated to Alexa647. Positive clones were sequenced, and sequences analyzed to identify unique clonotypes.

[4] = molecular target: T2, extracellular domain of hIFNGR2; assay: flow cytometry

binding [1] | binding [2] | binding [3] | binding [4] | Binder
binds | binds | binds | binds | DR921 (VHH, also called anti-IFNGR1 sdAb VHH DR921) VHH: QVQLVESGGGLVQAGDSLRLSCAASGRTFTFSTHNMGWFRQAPGKEREFVGGIMWTSRASYADSVKGRFTVSRDNAKNTVYLQMNSLKPEDTAVYYCAAAWYGNSGASYDYWGQGTQVTVSS
binds | binds | binds | binds | DR957 (VHH) VHH: QVQLVESGGGLVQAGGSLRLSCAPSGRTFSSYAMAWFRQPPGKEREFVAAITVSGASTYYADSVKGRFTISRDNAKNSMYLQMNSLKPEDTAVYYCAAGGPGTIFPDYDYWGQGTQVTVSS

The remaining lines, values behind:

Binder | binding [1] | binding [2] | binding [3] | binding [4]
DR945 (VHH) VHH: LVESGGGLVQLVQAGGSLRLSCAASGRTFSGYNMGWFRQAPGKEREFVAAIAWAGSRTYYTDSVKGRFTISRDNAKNTMYLQMNTLRPEDTAVYYCAAHDETYYRLDRVDLYTHWGQGTQVTVSS | binds | binds | binds | binds
DR942 (VHH) VHH: QVQLVESGGGLVQAGGSLRLSCVASGRTFTGYAMGWFRQAPGKEREFVAVITWSGATTYYSASVKGRFTLSRDNAKNTVYLQMNSLKSEDTAVYYCAIRIRDGVSPENPNEYGYWGQGTQVTVSS | binds | binds | binds | binds
DR955 (VHH) VHH: QVQLVESGGGLVQTGGSLRLSCAASGRTFSSYAMAWFRQAPGKEREFVAAISILGGSADYEDSVQGRFTISRDNAKNTMYLQMNSLKPEDTAVYYCAARRPAPSDSYWSSTSYAYWGQGTLVTVSS | binds | binds | binds | binds
